Test results published in PubChem BioAssay AID2685 (National Center for Advancing Translational Sciences (NCATS), 2010).
The other results are listed elsewhere or left out. The main result of the screen is listed elsewhere. These columns were measured beside it and carry no call. The list favours compounds with an active or inconclusive main result. The note in brackets gives the kind of curve behind each potency; many fits are weak.

Test: qHTS Assay for Lipid Storage Modulators in Drosophila S3 Cells;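 on cell number change: cells counted by Cell Tracker Red CMTPX staining in the red channel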
Details: BODIPY lipid droplet fluorescence, 18-24 h; for cell number change: measured here: cell count max response, cells fed with added oleic acid
Outline: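 Drosophila S3 cells loaded with oleic acid (400 uM, as added) and compounds at several concentrations; lipid droplets imaged by 488-nm laser-scanning cytometry, 500–530 nm intensity and object ratio to cell channel. Percent activity normalized to 20 uM Triacsin C.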

[1] = measured here: cell number channel AC50, cells fed with added oleic acid
[2] = measured here: lipid fluorescence (Fed channel) AC50, cells fed with added oleic acid

| Compound | cell number change | AC50 [1] | AC50 [2] |
| --- | --- | --- | --- |
| Cc1ccc(-c2ncccc2OC(=O)C23CC4CC(CC(C4)C2)C3)cc1 | -38.4% | 10.3 µM [falling, partial curve] | – |
| Cc1ccc2c(c1)N(S(=O)(=O)c1cc(-c3cc(C)no3)ccc1C)CCO2 | 21.1% | 0.00411 µM [rising, full curve, poor fit] | – |
| CC1CCC2(CC1)NC(=O)N(CC(=O)NC(C)c1ccc(F)c(F)c1)C2=O (stereo not given) | 5.07% | 6.51 µM [falling, single point] | 2.91 µM [falling, single point] |
| COc1ccc(C2(c3ccc(OC)cc3)NC(=O)NC2=O)cc1 | -26.7% | – | – |
| CCN(CC(=O)NCc1ccc(F)cc1)C(=O)c1ccc(C(=O)c2ccccc2)cc1 | 28.6% | – | 29.1 µM [falling, partial curve] |
| CC(C)(C)CC(C)(C)NC1=CC(=O)OC12CCCCC2 | 2.09% | – | – |
| COc1cc2c(c3oc(=O)cc(CC(=O)O)c13)CCC(C)(C)O2 | 31.9% | 32.6 µM [rising, single point] | 29.1 µM [rising, single point] |
| Cc1cc(C)n2nc(Nc3ccccc3)cc2n1 | -12.3% | 0.206 µM [rising, full curve, poor fit] | – |
| COc1cccc(/C=N/NC(=O)CCn2cnc3ccccc32)c1 | 14.1% | – | – |
| COc1c(O)cc2c(c1O)[C@@H]1O[C@H](CO)[C@@H](O)[C@H](O)C1OC2=O (stereo not given in full) | -48.3% | 29.1 µM [falling, single point] | 29.1 µM [falling, single point] |
| CCOC(=O)c1ccc(N2C(=O)C3CC=C(C)CC3C2=O)cc1 (stereo not given) | 12.3% | – | 32.6 µM [rising, partial curve] |
| CCOC(=O)c1cc(C)n(CCCN2CCOCC2)c1C | -0.989% | 0.58 µM [falling, single point] | – |
| CCCCS(=O)(=O)N1CCCC(C(=O)Nc2ccc3c(c2)CCC3)C1 (stereo not given) | 16.4% | – | – |
| O=C(Nc1ccc(O)c(-c2nc3ccccc3s2)c1)c1cc(=O)c2ccccc2o1 | -8.11% | 6.51 µM [falling, single point] | – |
| CCCc1[nH]nc2c1C(c1ccc(OC(=O)N3CCOCC3)c(OC)c1)C(C#N)=C(N)O2 (stereo not given) | – | 3.26 µM [rising, single point] | 4.11 µM [rising, partial curve, poor fit] |
| Cc1ccc(NC(=O)C2=C(O)CCn3c2nc2ccccc23)cc1 | 0.925% | – | 0.146 µM [rising, full curve, poor fit] |
| COc1ccccc1N1CCN(C(=O)CCc2nnc3ccc(N4CCOCC4)nn23)CC1 | 2.67% | – | – |
| Cc1cc(C)c(C#N)c(SCC(=O)c2cccs2)n1 | 14.5% | – | – |
| COC(=O)c1ccccc1NC(=S)N(Cc1ccc2c(c1)OCO2)Cc1cc2ccc(C)cc2[nH]c1=O | -11.7% | – | 1.16 µM [rising, full curve] |
| CN(C)CCCNc1nc(N)c([N+](=O)[O-])c(NC2CCCCC2)n1 | -47.9% | 7.31 µM [falling, single point] | 6.51 µM [rising, single point] |
| CCC(C)(C)NC(=O)c1ccc2c(c1)OCCO2 | 59.3% | – | – |

Shown with tabs: part of the list above
Compound	cell number change	AC50 [1]	AC50 [2]
Cc1ccc(-c2ncccc2OC(=O)C23CC4CC(CC(C4)C2)C3)cc1	-38.4%	10.3 µM [falling, partial curve]	–
Cc1ccc2c(c1)N(S(=O)(=O)c1cc(-c3cc(C)no3)ccc1C)CCO2	21.1%	0.00411 µM [rising, full curve, poor fit]	–
CC1CCC2(CC1)NC(=O)N(CC(=O)NC(C)c1ccc(F)c(F)c1)C2=O (stereo not given)	5.07%	6.51 µM [falling, single point]	2.91 µM [falling, single point]
COc1ccc(C2(c3ccc(OC)cc3)NC(=O)NC2=O)cc1	-26.7%	–	–

Continuation:

| Compound | cell number change | AC50 [1] | AC50 [2] |
| --- | --- | --- | --- |
| COc1ccc(C(=O)N2CCN(Cc3cc(OC)c(O)c(OC)c3)CC2)cc1OC | 8.18% | – | 0.291 µM [rising, full curve, poor fit] |
| CSc1ccc(C#N)cc1NC(=O)c1ccc(Cl)nc1 | -13.4% | 0.103 µM [falling, full curve, poor fit] | – |
| COc1ccc(CNC(=O)c2c(C)cc(=O)oc2C)cc1 | 61.1% | 16.4 µM [rising, single point] | – |
| Cc1cccc(NC(=O)COC(=O)c2cccc(S(=O)(=O)N3CCCCCC3)c2)c1 | -8.46% | – | 4.11 µM [falling, single point] |
| CCNc1oc(COc2ccccc2F)nc1C#N | 13% | – | 1.84 µM [rising, full curve, poor fit] |
| COc1ccccc1-c1cc2nc(C)c(CCC(=O)NC(C)CCc3ccco3)c(C)n2n1 (stereo not given) | – | 5.8 µM [rising, single point] | 6.51 µM [rising, single point] |
| O=C(Nc1cccc(Cl)c1)C1=Cc2cc(Cl)ccc2OC1 | -11.3% | – | – |
| O=C(c1cccc(N2C(=O)C3C4C=CC(C4)C3C2=O)c1)N1CCN(c2ccccc2Cl)CC1 (stereo not given) | 5.2% | – | – |
| CN1CCN(c2nc3c(c(=O)n(C)c(=O)n3C)n2Cc2ccccc2F)CC1 | 32.8% | 32.6 µM [rising, single point] | – |
| Cc1ccc(Oc2ncccc2/C=N/OCc2ccc(Cl)c(Cl)c2)cc1 | -18.5% | – | – |
| Cc1nn(C)c(C)c1CN(C(=O)CCc1nnc(Cc2c[nH]c3ccccc23)o1)C(C)C | -56.7% | 10.3 µM [falling, partial curve] | 20.6 µM [falling, single point] |
| O=C(COc1ccc(Cl)cc1)Nc1ccc(Cl)cn1 | -6.27% | – | – |
| Cn1cc(Br)c(C(=O)Nc2sc3c(c2C(N)=O)CCC3)n1 | 30.6% | 1.84 µM [rising, partial curve, poor fit] | 6.51 µM [rising, partial curve] |
| COc1cccc(NS(=O)(=O)c2ccc3[nH]cc(C(=O)N(C)Cc4ccco4)c(=O)c3c2)c1 | -2.26% | – | 1.64 µM [falling, full curve, poor fit] |
| O=C(COC(=O)C1CCCCC1C(=O)N1CCc2ccccc21)NCc1ccco1 (stereo not given) | 26.2% | 0.92 µM [rising, full curve, poor fit] | 0.82 µM [falling, full curve, poor fit] |
| Cc1nc2ccccc2n1CC(=O)OCC(=O)NC1CC1 | -19.8% | – | – |
| CC1CCCN(S(=O)(=O)CCNC(=O)c2ccc3c(c2)OCO3)C1 (stereo not given) | -25% | 0.00517 µM [falling, full curve, poor fit] | 0.58 µM [rising, single point] |
| O=C(NCc1nnc(SCc2ccc(F)cc2)n1-c1ccc(F)cc1)C12CC3CC(CC(C3)C1)C2 | -60.3% | 18.4 µM [falling, single point] | – |
| CCOc1cc(/C=N/NC(=O)c2cc(C3CC3)[nH]n2)ccc1O | – | 0.00461 µM [rising, full curve, poor fit] | 0.00411 µM [rising, partial curve, poor fit] |
| COCC1CCCN(C(=O)c2cc(COc3cccc4cccnc34)on2)C1 (stereo not given) | -2.35% | – | 29.1 µM [falling, single point] |
| CCCCN(C(=O)CCC(=O)O)C1CC(=O)N(c2ccc(OCCC)cc2)C1=O (stereo not given) | -35.1% | 32.6 µM [falling, single point] | – |

| Compound | cell number change | AC50 [1] | AC50 [2] |
| --- | --- | --- | --- |
| CC(C)(C)N(Cc1cc2ccccc2[nH]c1=O)C(=O)c1cccnc1 | 21% | 0.259 µM [rising, full curve, poor fit] | 0.291 µM [rising, partial curve, poor fit] |
| O=C(NCCCN1CCCC1)c1ccc2c(c1)N(Cc1ccccc1F)C(=O)c1ccccc1S2(=O)=O | – | – | 16.4 µM [rising, partial curve] |
| COc1ccc(/C=N/NC(=O)CCSc2nc3ccccc3s2)cc1 | 2.22% | – | 0.164 µM [rising, full curve, poor fit] |
| C1=CC2C3C=CC(C3)C2C1 (stereo not given) | -5.76% | – | 0.517 µM [rising, single point] |
| Cc1ccc(C(=O)ONC(=O)c2ccc(Cl)cc2)cc1[N+](=O)[O-] | 20.6% | – | – |
| COc1ccc(NC(=S)N(CCN2CCOCC2)Cc2ccccc2F)cc1 | -12.3% | 6.51 µM [falling, single point] | – |
| CCC(CCCO)CCC[C@H](C)CCC1OCCO1 (stereo not given in full) | -11.6% | – | 0.116 µM [falling, full curve, poor fit] |
| O=C(NCc1ccc(F)cc1)c1c(O)c2cccc3c2n(c1=O)CCC3 | -1.59% | – | – |
| CCOC(=O)c1c(NC(=O)COC(=O)Cn2cnc3ccccc32)sc(C)c1C | -20.4% | – | 29.1 µM [rising, single point] |
| COc1ccc(CCNC(=S)Nc2ccc(C(C)C)cc2)cc1 | 3.31% | – | 0.461 µM [falling, single point] |
| Cc1ccc(N(C(C)C(=O)O)S(=O)(=O)c2c(C)[nH]c(=O)[nH]c2=O)cc1 (stereo not given) | 0.921% | – | 0.0116 µM [falling, single point] |
| Nc1c(C(=O)NCc2ccco2)nnn1-c1ccccc1 | -3.16% | – | – |
| Nc1nonc1-n1nnc(C(=O)N/N=C/c2ccc3c(c2)OCO3)c1-c1ccccc1 | 27.5% | – | – |
| Cn1nnc(NC(=O)c2cccc(F)c2)n1 | 8.32% | – | 29.1 µM [falling, single point] |
| COCCNC(=O)NC(=O)COC(=O)C1(c2ccc(Cl)cc2)CC1 | 25.9% | – | 29.1 µM [rising, single point] |
| S=C(Nc1ccccc1Cl)N1CCOCC1 | -9.31% | – | 6.51 µM [falling, single point] |
| Cc1ccccc1Nc1nc(N)nc(COC(=O)c2cccn2C)n1 | -4.81% | – | 6.51 µM [rising, single point] |
| COc1cccc(N2CC(=O)N(NC(=O)CSc3nc(C)cc(C)c3C#N)CC2=O)c1 | 23.2% | – | 0.103 µM [rising, full curve, poor fit] |
| CCOc1ccc(N2CC(C(=O)NCCc3c[nH]c4ccc(OC)cc34)CC2=O)cc1 (stereo not given) | 2.78% | – | – |
| COc1cccc2cc(C(=O)NCc3ccco3)c(=O)oc12 | 20.6% | – | 3.66 µM [rising, partial curve, poor fit] |
